Our source for the AC50 values is PubChem BioAssay AID445 (National Center for Advancing Translational Sciences (NCATS), 2006).

The experiment can be described thus: IkB Signaling. Particulars: ABC-DLBCL IkBa-CBG/CBR dual luciferase ratio (green luciferase fused to IkBa over red control in OCI-Ly3 lymphoma cells), 4 h. A digest of the protocol:
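In this assay, an IκBα–CBG68 fusion accumulates when IKK-driven degradation is blocked; native CBR normalizes for cell number. OCI-Ly3 cells were treated 4 h with compound and doxycycline, then green and red light read after Chroma-Glo addition.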

[1] abbreviates: measured here: control luc red channel unless noted.

SMILES strings stand for the structures. The list shows a part of the results. Further columns of the screen follow, without active or inactive calls. Compounds called inactive in the main read-out are mostly missing here. The note in brackets gives the kind of curve behind each potency; many fits are weak.

Regarding `O=C(Nc1ccc(C(=O)N2CCCCC2)cc1)c1nsc2ccccc12`, under setting [1], the AC50 is 0.158 µM [falling, full curve].

As for `O=C(Nc1nc2n(n1)C(c1ccccc1)C=C(c1ccccc1)N2)c1ccccc1` (stereo unspecified), the AC50 under setting [1] is 31.6 µM [falling, partial curve].

On to `Fc1ccc(Nc2nc(SCc3cccc(Cl)c3)nc3ccccc23)cc1`, for which the half-maximal activity concentration (AC50) under setting [1] is 39.8 µM [falling, single point].

Turning to `CSc1nc(-c2ccccc2Cl)nc2c1Cc1c(CO)cnc(C)c1O2`, under setting [1], the concentration at half-maximal activity (AC50) is 0.794 µM [rising, full curve].

Take `Cc1oc(-c2ccc3c(c2)OCCO3)cc1C(=O)O`: the concentration at half-maximal activity (AC50) under setting [1] is 0.0794 µM [falling, full curve].

Consider `COc1ccc2[nH]c(=O)c(C(c3nnnn3C3CCCC3)N(C)C3CCCCC3)cc2c1` (stereo unspecified), for which the AC50 under setting [1] is 39.8 µM [falling, single point].

As to `CCc1nnc2c(N3CCN(c4cccc(C(F)(F)F)c4)CC3)nc3ccccc3n12`, the AC50 under setting [1] was 10 µM [falling, partial curve].

In the case of `COc1ccc(N(CC(=O)N2CCc3ccccc3C2)S(=O)(=O)c2ccc(C)cc2)cc1Cl`, the AC50 under setting [1] is 10 µM [falling, partial curve, poor fit].

Take `COc1ccc(C2=C(C(C)=O)Sc3nnc(-c4ccc(Cl)cc4)n3N2C(C)=O)cc1OC`: the concentration at half-maximal activity (AC50) under setting [1] is 1.58 µM [falling, partial curve].

Take `O=C(Nc1c(C(=O)N2CCN(c3ccccc3F)CC2)oc2ccccc12)c1ccco1`: under setting [1], the half-maximal activity concentration (AC50) is 5.01 µM [falling, partial curve].

`CNC(=O)[C@@H]1O[C@@H](n2cnc3c(N)ncnc32)[C@@H](O)[C@H]1O`: the concentration at half-maximal activity (AC50) (measured here: IkB-luc green channel) is 0.0316 µM [rising, full curve, poor fit] and the AC50 (measured here: control luc red channel) was 0.0501 µM [rising, full curve, poor fit].

Regarding `N#CC1=C2SCN(C3CCCCC3)CN2C(=O)CC1c1ccc(Br)cc1` (stereo unspecified), the AC50 under setting [1] is 1 µM [falling, partial curve].

Regarding `COc1ccc(-n2nc3cc(C)c(N)c(Br)c3n2)cc1`, the half-maximal activity concentration (AC50) under setting [1] was 31.6 µM [rising, single point] [measured here: IkB-luc green channel].

Take `O=C1c2ccccc2C(=O)N1CCCCN(C(=O)c1ccco1)c1ccc(Cl)cc1`: under setting [1], the AC50 was 12.6 µM [falling, partial curve].

In the case of `COc1ccc(NCc2cccn2-c2nnc(N3CCC(C)CC3)s2)c(OC)c1`, the AC50 under setting [1] is 10 µM [falling, partial curve].

On to `O=C(CSc1nc2c(c(=O)[nH]1)CCC2)Nc1cc(C(F)(F)F)ccc1Cl`, for which the half-maximal activity concentration (AC50) under setting [1] is 31.6 µM [falling, single point].

Regarding `Cn1ccc2c(OCC(=O)NCc3ccc(F)cc3)cccc2c1=O`, the concentration at half-maximal activity (AC50) under setting [1] was 12.6 µM [rising, partial curve].

`COc1c(Cl)cc(Cl)cc1C(=O)Nc1cccc2cccnc12`: under setting [1], the concentration at half-maximal activity (AC50) was 12.6 µM [falling, partial curve].

Regarding `CCc1cccc(NC(=O)CSc2nccn2C)c1`, the AC50 under setting [1] is 1 µM [rising, full curve].

For the compound `CCOC(=O)c1cc(S(=O)(=O)Nc2cc(C)c(Cl)cc2OC)[nH]n1`, the AC50 under setting [1] is 10 µM [falling, partial curve].

For the compound `CCc1nnc(NC(=O)c2nc(SCc3ccc(F)cc3)ncc2Cl)s1`, the concentration at half-maximal activity (AC50) under setting [1] was 31.6 µM [falling, single point].

With `CCOc1ccc(OCC)c(NS(=O)(=O)c2ccc3c(c2)CCCN3C(C)=O)c1`, under setting [1], the AC50 was 1 µM [rising, full curve].

On to `CCCCn1c(C2CC(=O)N(c3ccc(OCC)cc3)C2)nc2ccccc21` (stereo unspecified), for which the AC50 under setting [1] is 15.8 µM [falling, partial curve].

`O=C(OCC1CCCO1)c1ccc2c(c1)N(Cc1c(F)cccc1Cl)C(=O)c1ccccc1S2(=O)=O` (stereo unspecified): the AC50 under setting [1] was 0.1 µM [rising, full curve, poor fit].

On to `CCOCCn1c(=NC(=O)c2ccc3c(c2)OCCO3)sc2cc(OCC)ccc21`, for which the AC50 under setting [1] was 5.01 µM [falling, partial curve, poor fit].

For `COCC(C)NC(=O)C1=CC(c2ccc3c(c2)OCO3)=NS(=O)(=O)N1C` (stereo unspecified), the AC50 under setting [1] is 25.1 µM [falling, single point].

On to `O=C(Nc1ccccc1C(F)(F)F)C1CCN(c2nnc(-n3cccc3)s2)CC1`, for which the half-maximal activity concentration (AC50) under setting [1] is 39.8 µM [falling, single point].

As for `Cc1cccc(S(=O)(=O)c2cn(Cc3ccc(F)cc3)c3cc(N4CCOCC4)c(F)cc3c2=O)c1`, the AC50 under setting [1] is 39.8 µM [falling, single point].

On to `O=C(Cn1cc(SCc2ccc(F)cc2)c2ccccc21)N1CCCC1`, for which, under setting [1], the AC50 is 20 µM [falling, single point].

Turning to `CCN(CC)S(=O)(=O)c1ccc2c(c1)c(=O)c(C(=O)N1CCN(c3cc(C)ccc3C)CC1)cn2C`, the half-maximal activity concentration (AC50) under setting [1] was 20 µM [falling, partial curve, poor fit].

Regarding `Cc1nc(NC(=O)c2ccccc2)sc1-c1csc(N)n1`, under setting [1], the concentration at half-maximal activity (AC50) is 10 µM [falling, partial curve].

Take `NCCNS(=O)(=O)c1cccc2c(Cl)cccc12`: under setting [1], the AC50 is 20 µM [falling, partial curve].

Regarding `CCc1ccc2[nH]c(=O)c(C(c3nnnn3CC3CCCO3)N3CCCc4ccccc43)cc2c1` (stereo unspecified), the half-maximal activity concentration (AC50) under setting [1] is 25.1 µM [falling, single point].

Take `Cc1cc(C)c(NS(=O)(=O)c2ccc3c(c2)NC(=O)CCS3)c(C)c1`: the AC50 under setting [1] was 20 µM [falling, partial curve].

Consider `CCc1ccccc1NS(=O)(=O)c1ccc(SC)cc1`, for which the AC50 under setting [1] was 20 µM [falling, partial curve].

For `COc1ccccc1N1CCN(C[C@@H](O)COc2cccc3ccccc23)CC1`, the AC50 under setting [1] is 31.6 µM [falling, partial curve].

With `COC(=O)C1=C(C)NC(C)=C([N+](=O)[O-])[C@@H]1c1ccccc1C(F)(F)F`, under setting [1], the half-maximal activity concentration (AC50) was 39.8 µM [falling, single point].

In the case of `CCCCN(CCCNC(=O)c1c(C)cc(=O)oc1C)c1ccccc1`, the AC50 under setting [1] was 39.8 µM [falling, single point].

Consider `CC(=O)c1ccc(NC(=O)CSc2nnc(NC(=O)NC3CCCCC3)s2)cc1`, for which the AC50 under setting [1] was 39.8 µM [falling, single point].

`O=C(COc1ccccc1Cl)Nc1ccc2c(c1)OCCO2`: under setting [1], the AC50 is 25.1 µM [falling, single point].

As a reminder, the AC50 is the concentration giving half of the maximal activity seen.
